Here are results for three molecules from patent US20200155631A1, “METHOD OF STABILIZING MIND AND BODY WITH DISTILLED EXTRACT OF MOUNTAIN-CULTIVATED PANAX GINSENG” (Jayeonae Co., Ltd., priority 2018, published 2020).

This data set can be described thus: Olfactory test (GC-MS olfactory detection port sniffing test, three skilled experimenters). The following applies: olfactory test of volatile flavor components.
In the case of `Cc1nc(C)c(C)nc1C` [2,3,5,6 Tetramethyl pyrazine, 2,3,5,6-tetramethylpyrazine], the flavor character entry was “sweet flavor”. Consider `CC(C)c1ccc(C=O)cc1` [4-1-Methyl ethyl benzaldehyde], for which the flavor character entry was “sweet flavor”. Take `C=C[C@]1(C)CC[C@@H](C(=C)C)C[C@H]1C(=C)C` [β-Elemene]: the flavor character entry was “herb flavor”.
